Source: patent US6653306B1, “Epoxy-steroidal aldosterone antagonist and angiotensin II antagonist combination therapy” (G.D. Searle & Co., priority 1995, dated 2003)
For some assays here: At least one read-out could not be matched to a standard name with certainty. For some assays here: At least one structure is not confirmed: it was looked up by name or label, or the drawing left a doubt.

How the values were obtained:
[1] = target: angiotensin II AT1 receptor; assay: Assay A: Angiotensin II binding activity (125I-AII displacement, rat uterine membrane preparation)
Procedure: Assay A: Antiotensin II Binding Activity
Compounds of the invention were tested for ability to bind to the smooth muscle angiotensin II receptor using a rat uterine membrane preparation. […] Rat uterine membranes were prepared from fresh tissue. All procedures were carried out at 4° C. Uteri were stripped of fat and homogenized in phosphate-buffered saline at pH 7.4 containing 5 mM EDTA. The homogenate was centrifuged at 1500×g for 20 min., and the supernatant was recentrifuged at 100,000×g for 60 min. The pellet was resuspended in buffer consisting of 2 mM EDTA and 50 mM Tris-HCl (pH 7.5) to a final protein concentration of 4 mg/ml. […] The reaction was initiated by the addition of membrane protein and the mixture was incubated at 25° C. for 60 min. The incubation was terminated with ice-cold 50 mM Tris-HCl (pH 7.5) and the mixture was filtered to separate membrane-bound labelled peptide from the free ligand. The incubation tube and filter were washed with ice-cold buffer. Filters were assayed for radioactivity in a Micromedic gamma counter.
Nonspecific binding was defined as binding in the presence of 10 μM of unlabelled AII. Specific binding was calculated as total binding minus nonspecific binding. […] Binding data were analyzed by a nonlinear least-squares curve fitting program.

rabbit aortic rings = assay: Assay B: In vitro vascular smooth muscle response for AII (antagonist activity, pA2); type: cell-based; settings: two values per cell separated by / are separate determinations
Procedure: Assay B: In Vitro Vascular Smooth Muscle-response for AII
The compounds of the invention were tested for antagonist activity in rabbit aortic rings. Male New Zealand white rabbits (2-2.5 kg) were sacrificed using an overdose of pentobarbital and exsanguinated via the carotid arteries. The thoracic aorta was removed, cleaned of adherent fat and connective tissue and then cut into 3-mm ring segments. The endothelium was removed from the rings by gently sliding a rolled-up piece of filter paper into the vessel lumen. The rings were then mounted in a water-jacketed tissue bath, maintained at 37° C., between moveable and fixed ends of a stainless steel wire with the moveable end attached to an FT03 Grass transducer coupled to a Model 7D Grass Polygraph for recording isometric force responses. The bath was filled with 20 ml of oxygenated (95% oxygen/5% carbon dioxide) Krebs solution of the following composition (mM): 130 NaCl, […], 15 KCl, 1.2 NaH2PO4, 1.2 MgSO4, 2.5 CaCl2, and 11.4 glucose. […] Angiotensin II concentration-response curves were then recorded (3×10^−10 to 1×10^−5 M). […] The effectiveness of the test compound was expressed in terms of pA2 values and were calculated according to H. O. Schild [Br. J. Pharmacol, Chemother., 2,189-206 (1947)]. […] Each test antagonist was evaluated in aorta rings from two rabbits.

## CCCCc1nc2c(OC(=O)Cc3ccccc3)nnc(O)c2n1Cc1ccc(-c2ccccc2-c2nnn[nH]2)cc1 [Compound 124]
[1]
  IC50: 40 nM
Rabbit aortic rings
  Assay B pA2: 9.12
